Among the test systems are MZ2-MEL; MeWo; RPMI7951; RVH-421; SkMel28; SkMel2; SkMel30; UACC62; WM115; WM1716; WM1745; WM3526; WM3619; WM451Lu.
Assay in all cases: cleaved PARP positive nuclei fraction relative to DMSO control; melanoma cells; higher = more apoptosis
What all share (conditions): library dose: low library concentration; 72 h

The other results are listed elsewhere or left out. Single values are uncertain, as repeats are few or missing.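 Imaging used 1,536-well plates; nuclei positive for cleaved PARP by antibody were divided by total DNA-stained nuclei to yield the apoptosis fraction. Doses for screening kept most cells viable, and cell lines differ markedly in resting and induced cleaved-PARP levels.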

In the case of `Cc1cc(Nc2cc(N3CCN(C)CC3)nc(Sc3ccc(NC(=O)C4CC4)cc3)n2)n[nH]1` [Tozasertib] + CC(=O)O[C@@]12CO[C@@H]1C[C@H](O)[C@@]1(C)C(=O)[C@H](O)C3=C(C)[C@@H](OC(=O)[C@H](O)[C@@H](NC(=O)OC(C)(C)C)c4ccccc4)C[C@@](O)([C@@H](OC(=O)c4ccccc4)[C@H]21)C3(C)C [Docetaxel] (first compound 0.006 µM, partner dose 0.0001 µM), the “cleaved PARP positive nuclei fraction” value with MZ2-MEL was 273%; in the assay on MeWo, 630%; in the assay with RPMI7951 it was 656%; in the assay with RVH-421, 199%; in the assay with SkMel28, 127%; in the assay on SkMel2, 305%. Further, the “cleaved PARP positive nuclei fraction” value amounted to 442% in the assay with SkMel30; 105% in the assay on UACC62; 396% in the assay on WM115; 90% in the assay on WM1716; 160% in the assay on WM1745; 230% with WM3526. In addition, the entries for the “cleaved PARP positive nuclei fraction” value in the assay on WM3619 and in the assay with WM451Lu were 128% and 93.4%, respectively.
For `CC[C@]1(O)C[C@H]2CN(CCc3c([nH]c4ccccc34)[C@@](C(=O)OC)(c3cc4c(cc3OC)N(C=O)[C@H]3[C@@](O)(C(=O)OC)[C@H](OC(C)=O)[C@]5(CC)C=CCN6CC[C@]43[C@@H]65)C2)C1` [vincristine] + Clc1ccc(Nc2nnc(Cc3ccncc3)c3ccccc23)cc1 [vatalanib] (first compound 0.0001 µM, partner dose 2 µM), the “cleaved PARP positive nuclei fraction” value in the assay on MZ2-MEL stood at 175%; in the assay with MeWo it was 271%; with RPMI7951, 82.1%; in the assay with RVH-421, 261%; in the assay with SkMel28 it was 124%; with SkMel2, 114%. Also, the “cleaved PARP positive nuclei fraction” value is 159% in the assay with SkMel30; 443% in the assay with UACC62; 2320% in the assay with WM115; 557% with WM1716; 136% in the assay on WM1745; 81.6% with WM3526. The “cleaved PARP positive nuclei fraction” value with WM3619 came out at 202%; in the assay on WM451Lu, 258%.
Turning to `O=C(/C=C/c1cccnc1)NCCCCC1CCN(C(=O)c2ccccc2)CC1` + NC1(c2ccc(-c3nc4ccn5c(=O)[nH]nc5c4cc3-c3ccccc3)cc2)CCC1 [MK2206] (first compound 0.01 µM, partner dose 0.4 µM), the “cleaved PARP positive nuclei fraction” value in the assay on MZ2-MEL came out at 571%; in the assay on MeWo, 93.1%; with RPMI7951, 130%; in the assay with RVH-421, 703%; in the assay with SkMel28, 146%; in the assay on SkMel2, 831%. Further, the “cleaved PARP positive nuclei fraction” value with SkMel30 is 170%; in the assay with UACC62 it was 77.7%; with WM115 it was 99%; with WM1716, 22.6%; in the assay on WM1745, 112%; in the assay with WM3526 it was 255%. Further, the “cleaved PARP positive nuclei fraction” value with WM3619 is 124%; with WM451Lu, 77.9%.
For `Cc1ccc(Nc2nccc(N(C)c3ccc4c(C)n(C)nc4c3)n2)cc1S(N)(=O)=O` [Pazopanib] + Cc1cn(-c2cc(NC(=O)c3ccc(C)c(Nc4nccc(-c5cccnc5)n4)c3)cc(C(F)(F)F)c2)cn1 [nilotinib] (first compound 0.4 µM, partner dose 0.2 µM), the “cleaved PARP positive nuclei fraction” value with MZ2-MEL was determined as 56.8%; in the assay with MeWo, 57.5%; with RPMI7951 it was 81.7%; in the assay with RVH-421 it was 137%; in the assay on SkMel28, 129%; in the assay with SkMel2 it was 49.7%. The “cleaved PARP positive nuclei fraction” value in the assay on SkMel30 is 95.8%; in the assay on UACC62, 165%; in the assay on WM115 it was 30.1%; in the assay on WM1716, 69.4%; with WM1745, 100%; in the assay with WM3526 it was 319%. Further, the “cleaved PARP positive nuclei fraction” value stood at 97.7% with WM3619 and 49% in the assay with WM451Lu.
With `O=c1[nH]nc(Sc2ncc([N+](=O)[O-])s2)n1-c1ccc2c(c1)OCCO2` + Cn1c(=O)n(-c2ccc(C(C)(C)C#N)cc2)c2c3cc(-c4cnc5ccccc5c4)ccc3ncc21 [NVP-BEZ235] (first compound 0.2 µM, partner dose 0.004 µM), the “cleaved PARP positive nuclei fraction” value with MZ2-MEL was found to be 59.3%; with MeWo it was 72.5%; in the assay with RPMI7951, 105%; with RVH-421 it was 65.5%; with SkMel28, 232%; with SkMel2, 67.5%. Moreover, the “cleaved PARP positive nuclei fraction” value was 138% with SkMel30; 55.7% in the assay on UACC62; 94.9% in the assay with WM115; 68.6% in the assay on WM1716; 99.8% with WM1745; 204% with WM3526. The figures for the “cleaved PARP positive nuclei fraction” value in the assay with WM3619 and in the assay on WM451Lu were 118% and 93.4%, respectively.
As for `CC[C@]1(O)C[C@H]2CN(CCc3c([nH]c4ccccc34)[C@@](C(=O)OC)(c3cc4c(cc3OC)N(C=O)[C@H]3[C@@](O)(C(=O)OC)[C@H](OC(C)=O)[C@]5(CC)C=CCN6CC[C@]43[C@@H]65)C2)C1` [vincristine] + COc1cc([C@@H]2c3cc4c(cc3[C@@H](O[C@@H]3O[C@@H]5CO[C@@H](C)O[C@H]5[C@H](O)[C@H]3O)[C@H]3COC(=O)[C@H]23)OCO4)cc(OC)c1O [etoposide] (first compound 0.0001 µM, partner dose 0.02 µM), the “cleaved PARP positive nuclei fraction” value with MZ2-MEL worked out at 146%; with MeWo, 42.5%; with RPMI7951, 116%; with RVH-421, 80.1%; with SkMel28, 337%; in the assay on SkMel2, 228%. Also, the “cleaved PARP positive nuclei fraction” value with SkMel30 is 336%; in the assay on UACC62, 363%; in the assay on WM115, 868%; in the assay on WM1716, 76%; with WM1745 it was 120%; in the assay on WM3526 it was 83.8%. Besides, the “cleaved PARP positive nuclei fraction” value with WM3619 turned out to be 138%; with WM451Lu it was 173%.

Source of the values: the supplement of paper PMC4604168 (melanoma cell lines).
